# Results from the supplement of paper PMC8728848.
# This is one part of the list.
# Key:
# Test in all cases: glycan array binding signal (z-score within array); higher = stronger binding
# Details in all cases: glycan notation: IUPAC condensed, linker removed; mutation: D224N
# [1] = molecular target: Gal(b1-4)GalNAc(b1-3)[Fuc(a1-2)]Gal(b1-4)GlcNAc
# Summary of the method: (§1)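 Columns mapping to the same glycan were averaged after glycan names were converted to IUPAC-condensed notation. The data come from 3228 arrays in the Consortium for Functional Glycomics database, limited to those with an available protein sequence. Binding is reported as a within-array Z-score averaged across arrays of one protein sequence and across linkers.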
# [2] = molecular target: Gal(b1-4)Glc
# Summary of the method: as §1
# [3] = molecular target: Gal(b1-4)Glc6S
# Summary of the method: as §1
# [4] = molecular target: Gal(b1-4)GlcNAc
# Summary of the method: as §1
# [5] = molecular target: Gal(b1-4)GlcNAc(a1-6)Gal(b1-4)GlcNAc
# Summary of the method: as §1
# [6] = molecular target: Gal(b1-4)GlcNAc(b1-2)Man
# Summary of the method: as §1
# [7] = molecular target: Gal(b1-4)GlcNAc(b1-2)Man(a1-3)Man(b1-4)GlcNAc(b1-4)GlcNAc
# Summary of the method: as §1
# [8] = molecular target: Gal(b1-4)GlcNAc(b1-2)Man(a1-3)[Gal(b1-4)GlcNAc(b1-2)Man(a1-6)]Man(b1-4)GlcNAc(b1-4)GlcNAc
# Summary of the method: as §1
# [9] = molecular target: Gal(b1-4)GlcNAc(b1-2)Man(a1-3)[Gal(b1-4)GlcNAc(b1-2)Man(a1-6)]Man(b1-4)GlcNAc(b1-4)[Fuc(a1-6)]GlcNAc
# Summary of the method: as §1
# [10] = molecular target: Gal(b1-4)GlcNAc(b1-2)Man(a1-3)[Gal(b1-4)GlcNAc(b1-2)Man(a1-6)][Gal(b1-4)GlcNAc(b1-4)]Man(b1-4)GlcNAc(b1-4)[Fuc(a1-6)]GlcNAc
# Summary of the method: as §1
# [11] = molecular target: Gal(b1-4)GlcNAc(b1-2)Man(a1-3)[Gal(b1-4)GlcNAc(b1-2)Man(a1-6)][GlcNAc(b1-4)]Man(b1-4)GlcNAc(b1-4)[Fuc(a1-6)]GlcNAc
# Summary of the method: as §1
# [12] = molecular target: Gal(b1-4)GlcNAc(b1-2)Man(a1-3)[GlcNAc(b1-2)Man(a1-6)]Man(b1-4)GlcNAc(b1-4)GlcNAc
# Summary of the method: as §1
# [13] = molecular target: Gal(b1-4)GlcNAc(b1-2)Man(a1-3)[GlcNAc(b1-4)][Gal(b1-4)GlcNAc(b1-2)Man(a1-6)]Man(b1-4)GlcNAc(b1-4)GlcNAc
# Summary of the method: as §1
# [14] = molecular target: Gal(b1-4)GlcNAc(b1-2)Man(a1-3)[Man(a1-6)]Man(b1-4)GlcNAc(b1-4)GlcNAc
# Summary of the method: as §1
# [15] = molecular target: Gal(b1-4)GlcNAc(b1-2)Man(a1-6)Man(b1-4)GlcNAc(b1-4)GlcNAc
# Summary of the method: as §1
# [16] = molecular target: Gal(b1-4)GlcNAc(b1-2)Man(a1-6)[GlcNAc(b1-2)Man(a1-3)]Man(b1-4)GlcNAc(b1-4)GlcNAc
# Summary of the method: as §1
# [17] = molecular target: Gal(b1-4)GlcNAc(b1-2)Man(a1-6)[Man(a1-3)]Man(b1-4)GlcNAc(b1-4)GlcNAc
# Summary of the method: as §1
# [18] = molecular target: Gal(b1-4)GlcNAc(b1-2)[Gal(b1-4)GlcNAc(b1-4)]Man(a1-3)[Gal(b1-4)GlcNAc(b1-2)Man(a1-6)]Man(b1-4)GlcNAc(b1-4)GlcNAc
# Summary of the method: as §1
# [19] = molecular target: Gal(b1-4)GlcNAc(b1-2)[Gal(b1-4)GlcNAc(b1-4)]Man(a1-3)[Gal(b1-4)GlcNAc(b1-2)[Gal(b1-4)GlcNAc(b1-6)]Man(a1-6)]Man(b1-4)GlcNAc(b1-4)GlcNAc
# Summary of the method: as §1
# [20] = molecular target: Gal(b1-4)GlcNAc(b1-2)[Gal(b1-4)GlcNAc(b1-4)]Man(a1-3)[GlcNAc(b1-4)][Gal(b1-4)GlcNAc(b1-2)Man(a1-6)]Man(b1-4)GlcNAc(b1-4)GlcNAc
# Summary of the method: as §1
# [21] = molecular target: Gal(b1-4)GlcNAc(b1-2)[Gal(b1-4)GlcNAc(b1-4)]Man(a1-3)[GlcNAc(b1-4)][Gal(b1-4)GlcNAc(b1-2)[Gal(b1-4)GlcNAc(b1-6)]Man(a1-6)]Man(b1-4)GlcNAc(b1-4)GlcNAc
# Summary of the method: as §1
# [22] = molecular target: Gal(b1-4)GlcNAc(b1-2)[Gal(b1-4)GlcNAc(b1-6)]Man(a1-6)[Gal(b1-4)GlcNAc(b1-2)Man(a1-3)]Man(b1-4)GlcNAc(b1-4)GlcNAc
# Summary of the method: as §1
binder,measurement,setting,value
a L Fucosidase (Thermotoga maritima) (protein) MASMKPRYKPDWESLREHTVPKWFDKAKFGIFIHWGIYSVPGWATPTGELGKVPMDAWFFQNPYAEWYENSLRIKESPTWEYHVKTYGENFEYEKFADLFTAEKWDPQEWADLFKKAGAKYVIPTTKHHDGFCLWGTKYTDFNSVKRGPKRDLVGDLAKAVREAGLRFGVYYSGGLDWRFTTEPIRYPEDLSYIRPNTYEYADYAYKQVMELVDLYLPDVLWNNMGWPEKGKEDLKYLFAYYYNKHPEGSVNDRWGVPHWDFKTAEYHVNYPGDLPGYKWEFTRGIGLSFGYNRNEGPEHMLSVEQLVYTLVDVVSKGGNLLLNVGPKGDGTIPDLQKERLLGLGEWLRKYGDAIYGTSVWERCCAKTEDGTEIRFTRKCNRIFVIFLGIPTGEKIVIEDLNLSAGTVRHFLTGERLSFKNVGKNLEITVPKKLLETDSITLVLEAVEE,glycan array binding signal (z-score),[1],-0.269
same,glycan array binding signal (z-score),[2],0.336
same,glycan array binding signal (z-score),[3],0.376
same,glycan array binding signal (z-score),[4],-0.016
same,glycan array binding signal (z-score),[5],-1.19
same,glycan array binding signal (z-score),[6],0.466
same,glycan array binding signal (z-score),[7],-1.08
same,glycan array binding signal (z-score),[8],-0.816
same,glycan array binding signal (z-score),[9],-0.322
same,glycan array binding signal (z-score),[10],-0.947
same,glycan array binding signal (z-score),[11],-0.424
same,glycan array binding signal (z-score),[12],-0.47
same,glycan array binding signal (z-score),[13],0.163
same,glycan array binding signal (z-score),[14],-0.138
same,glycan array binding signal (z-score),[15],-0.592
same,glycan array binding signal (z-score),[16],-0.419
same,glycan array binding signal (z-score),[17],0.706
same,glycan array binding signal (z-score),[18],-0.104
same,glycan array binding signal (z-score),[19],-0.489
same,glycan array binding signal (z-score),[20],-0.235
same,glycan array binding signal (z-score),[21],-0.054
same,glycan array binding signal (z-score),[22],-0.36

# Reformatted with tabs: part of the list above.
binder	measurement	setting	value
a L Fucosidase (Thermotoga maritima) (protein) MASMKPRYKPDWESLREHTVPKWFDKAKFGIFIHWGIYSVPGWATPTGELGKVPMDAWFFQNPYAEWYENSLRIKESPTWEYHVKTYGENFEYEKFADLFTAEKWDPQEWADLFKKAGAKYVIPTTKHHDGFCLWGTKYTDFNSVKRGPKRDLVGDLAKAVREAGLRFGVYYSGGLDWRFTTEPIRYPEDLSYIRPNTYEYADYAYKQVMELVDLYLPDVLWNNMGWPEKGKEDLKYLFAYYYNKHPEGSVNDRWGVPHWDFKTAEYHVNYPGDLPGYKWEFTRGIGLSFGYNRNEGPEHMLSVEQLVYTLVDVVSKGGNLLLNVGPKGDGTIPDLQKERLLGLGEWLRKYGDAIYGTSVWERCCAKTEDGTEIRFTRKCNRIFVIFLGIPTGEKIVIEDLNLSAGTVRHFLTGERLSFKNVGKNLEITVPKKLLETDSITLVLEAVEE	glycan array binding signal (z-score)	[4]	-0.016
same	glycan array binding signal (z-score)	[14]	-0.138
